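The test is a small-molecule microarray: each compound is printed twice on a reactive slide, and binding shows as fluorescence of the labelled oligonucleotide after washing. For the PreQ1, TPP and SAM-II riboswitches the laboratory earlier reported (doi:10.1038/s41467-019-09493-3) 1 µM RNA, 2 h, and a rule that included a mean Z-score above 3 (spot signal-to-noise against the whole library), a score well above that on a control array, and duplicate spots agreeing (coefficient of variation under 100). The data file gives only the calls; its cut-offs may differ, and compounds hitting several targets are kept. These are primary screening calls, not affinities; a compound without a hit may have attached poorly or may still bind in solution.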 “hit” means called a hit, “no hit” means screened and not called a hit. Compounds were drawn at random from those tested, without regard to their results. A dash means that no call is listed here.

Oligonucleotides screened, 5′ to 3′:
SAM-II: SAM-II riboswitch RNA pseudoknot, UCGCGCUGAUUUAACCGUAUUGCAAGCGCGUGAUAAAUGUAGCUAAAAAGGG. Hit rate about 1% of about 21,000 compounds.
TPP: TPP riboswitch RNA three-way junction, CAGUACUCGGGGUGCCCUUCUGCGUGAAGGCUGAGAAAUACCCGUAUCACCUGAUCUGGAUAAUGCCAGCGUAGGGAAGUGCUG. Hit rate about 0.7% of about 24,000 compounds.
PreQ1: PreQ1 riboswitch RNA pseudoknot, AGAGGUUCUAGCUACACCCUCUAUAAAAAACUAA. From B. subtilis. Hit rate about 0.7% of about 24,000 compounds.

SMILES	SAM-II	TPP	PreQ1
C=CC(=O)Nc1cccc(Oc2nc(Nc3ccc(N4CCN(C)CC4)cc3OC)ncc2Cl)c1	no hit	no hit	no hit
CCOC(=O)c1ccc2ncc(C(=O)OCC)c(Nc3ccc(C(=O)O)cc3)c2c1	no hit	no hit	no hit
O=S(=O)(c1ccc(F)cc1)c1nc(-c2ccco2)oc1NCCN1CCOCC1	-	no hit	no hit
CC(=O)c1ccc(Nc2cc(C)nc3nc(C)nn23)cc1	no hit	no hit	no hit
O=C(CCc1cc(Cl)no1)N[C@H]1CC[C@H]1NC1CCCCC1	no hit	no hit	no hit
FC(F)(F)c1ccc(N2CCC(NCCCC3CCOC3)CC2)nc1 (configuration not stated)	no hit	no hit	no hit
CCCC[N+]1(C)[C@H]2CC(OC(=O)[C@H](CO)c3ccccc3)C[C@H]1[C@H]1O[C@H]12 (some centres not stated)	no hit	no hit	no hit
CCOc1ccccc1NC(=O)c1c(N)sc2c1CCCC2	no hit	no hit	no hit
Cc1cccc(CN2CCC(N3CCN(CCO)CC3)CC2)c1	no hit	no hit	no hit
CSc1ccc(CC(=O)N2CCC3(CC2)[C@H](O)C[C@@H]3OCCN)cc1	no hit	no hit	no hit
Cc1ccccc1C(CNc1ncnc2c1CCNC2)N(C)C (configuration not stated)	no hit	no hit	no hit
O=[N+]([O-])c1cccnc1Oc1cccnc1	no hit	no hit	no hit
Cc1ccc(OC2(C(=O)NCCSc3nnnn3C)CCNCC2)cc1	no hit	no hit	no hit
CC(C)C1C(c2ccccc2)NC(c2ccccc2)CC1(O)C#Cc1ccccc1.Cl (configuration not stated)	no hit	no hit	no hit
COc1ccnc(CNC2CCN(c3cc(C)nc(N4CCCC4)n3)CC2)c1	no hit	no hit	no hit
Cc1nc2ccccc2nc1N1CCCC1	no hit	no hit	no hit
O=C1CC(NCc2cccs2)C(=O)N1c1ccc(Cl)cc1 (configuration not stated)	no hit	no hit	no hit
CCc1ccc(CN2CCCC(O)(CO)CC2)nc1 (configuration not stated)	no hit	no hit	no hit
S=C(NCc1ccc2c(c1)OCO2)N1CCN(c2ncnc3c2oc2ccccc23)CC1	no hit	no hit	no hit
O=S(=O)(c1ccccc1)c1nnn2c1nc(NCC1CCCO1)c1ccccc12 (configuration not stated)	no hit	no hit	no hit
O=C(CCNc1ccc(F)c(Cl)c1)c1cccs1	no hit	no hit	no hit
O=C1NCCN(C(=O)CCc2nc3ccccc3[nH]2)C1CCO (configuration not stated)	no hit	no hit	no hit
Cc1cnc(NC(=O)Nc2cc(Br)c(C)cc2OC[C@@H]2CNCCO2)cn1	no hit	no hit	no hit
COCCOC(=O)C1=C(N)OC2=C(C(=O)CCC2)C1c1ccc(Cl)cc1 (configuration not stated)	no hit	no hit	no hit
CCOCCCN[C@H]1CS(=O)(=O)C[C@@H]1S(=O)(=O)c1ccccc1	-	no hit	no hit
Cc1nc2ccc(C(=O)N3CCC4(CCCN(CCO)C4=O)C3)cc2s1 (configuration not stated)	no hit	no hit	no hit
O=C(c1ncc(F)cc1F)N1CCC(C(O)CCc2ccccc2)CC1 (configuration not stated)	no hit	no hit	no hit
COc1cc(CNC(C)C)ccc1OCc1ccc2c(c1)n(C)c(=O)n2C	-	no hit	no hit
CCCN1CCN(CC(O)c2ccc3c(c2)CCN3C(C)=O)CC1 (configuration not stated)	no hit	no hit	no hit
CCC(O)Cc1cc(C)c2ccc(OC)cc2n1 (configuration not stated)	no hit	no hit	no hit
O=C(O)Cn1nc(-c2c[nH]c3ccccc23)nc1CC1COCCN1 (configuration not stated)	no hit	no hit	no hit
Cc1sc(NC(=O)c2ccco2)c(C(c2cccnc2)N2CCN(CCO)CC2)c1C (configuration not stated)	no hit	no hit	no hit
Nc1ncccc1CN1CCC(Cc2cccc(C(=O)O)c2)C1 (configuration not stated)	no hit	no hit	no hit
Cc1nc(Nc2nc3ccccc3o2)nc2c1CCC2	no hit	no hit	no hit
Cc1ccc(CNc2c(-c3ccc(Cl)cc3)c(=O)c2=O)cc1	-	no hit	no hit
Cc1ccc(S(=O)(=O)Nc2ccccc2CNc2cccc3cccnc23)cc1	no hit	no hit	no hit
O=C(NCCCO)c1nn(-c2ccc(F)cc2)nc1CO	-	no hit	no hit
Cc1ccc(CNCc2ccc3c(c2)OCO3)cc1	no hit	no hit	no hit
Nc1n[nH]c2ccc(-c3ccc(S(=O)(=O)N4CCSCC4)cc3)cc12	hit	no hit	hit
OCCN1CCN(c2ncnc3scc(-c4ccc(F)cc4)c23)CC1	no hit	no hit	no hit
CN(C)c1ccc(C(O)c2cccs2)cc1 (configuration not stated)	no hit	no hit	no hit
COc1ccc(NC(=O)c2sc3nc4c(cc3c2N)CN(C)CC4)cc1	no hit	no hit	no hit
C1CCC(Cn2nc(C3CCOCC3)nc2C2CCNC2)CC1 (configuration not stated)	no hit	no hit	no hit
COc1ccc(S(=O)(=O)N2CCC(C(=O)NCCCO)CC2)cc1OC	no hit	no hit	no hit
Cc1nc(C)c(-c2csc(Nc3cccc(Cl)c3C)n2)s1	no hit	no hit	no hit
CC1(C)CC(=O)C2=C(C1)Nc1ccccc1NC2C=Cc1ccccc1 (configuration not stated)	no hit	no hit	no hit
CN(C)CCOC(c1ccccc1)c1ccccc1	no hit	no hit	no hit
CCC1CCC2(CC1)NC(CO)(CO)CO2 (configuration not stated)	no hit	no hit	no hit
O=C1CNCC(C(=O)N2CCC(c3nc(-c4ccccc4)no3)CC2)N1 (configuration not stated)	no hit	no hit	no hit
Cc1cc(=O)oc2cc(CN3CCC(N4CCC(O)CC4)CC3)ccc12	no hit	no hit	no hit
Cc1cc(-c2nn(C)c(Cl)c2CN2CCOCC(O)C2)no1 (configuration not stated)	no hit	no hit	no hit
COc1ccc(-c2cc3nc(C)cc(NC4CCCC4)n3n2)cc1OC	-	no hit	no hit
COc1ccc(CCCNc2nc(N)nc3c2CCNCC3)cc1OC	hit	no hit	no hit
CC(O)Cc1nsc(NC(=O)c2ccc(C(C)(C)C)cc2)n1 (configuration not stated)	no hit	no hit	no hit
c1ccc(OCCNCc2ccncc2)nc1	no hit	no hit	no hit
Cc1cc(Nc2cccc(C(F)(F)F)c2)ncn1	-	no hit	no hit
CCc1ccccc1N1C(=O)CC(NC2Cc3ccccc3C2)C1=O (configuration not stated)	no hit	no hit	no hit
C[C@@]12C(=O)OC(=O)[C@@]1(C)C1CCC2O1	no hit	no hit	no hit
C=CC[n+]1c(N)n(N)c2ccccc21.[Br-]	no hit	no hit	no hit
COc1cc(CNCc2ccc(F)cc2)cc(OC)c1OC	no hit	no hit	no hit
Cc1c(S(=O)(=O)c2ccc(Cl)cc2)c(N)n(CCC2=CCCCC2)c1C	no hit	no hit	no hit
COc1ccc(C(C)=O)c(O)c1	no hit	no hit	no hit
O=C(N1CCCC1)N1C[C@H](CO)C[C@H](CN2CCOCC2)C1	no hit	no hit	no hit
CC1(C)Cc2nc3sc4c(NCc5ccco5)ncnc4c3cc2CO1	no hit	no hit	no hit
N#CC1=C(N)N(c2ccc(F)cc2)C2=C(C(=O)OC2)C12C(=O)N(Cc1cccc(F)c1)c1ccccc12 (configuration not stated)	no hit	no hit	no hit
Cn1cc(-c2ccc3nnc(C(F)(F)c4ccc5ncccc5c4)n3n2)cn1	no hit	no hit	no hit
Cn1c(=O)c2c(nc(NC3CCCCC3)n2Cc2ccccc2)n(C)c1=O	no hit	no hit	no hit

The last 8 entries again:

SMILES,SAM-II,TPP,PreQ1
COc1cc(CNCc2ccc(F)cc2)cc(OC)c1OC,no hit,no hit,no hit
Cc1c(S(=O)(=O)c2ccc(Cl)cc2)c(N)n(CCC2=CCCCC2)c1C,no hit,no hit,no hit
COc1ccc(C(C)=O)c(O)c1,no hit,no hit,no hit
O=C(N1CCCC1)N1C[C@H](CO)C[C@H](CN2CCOCC2)C1,no hit,no hit,no hit
CC1(C)Cc2nc3sc4c(NCc5ccco5)ncnc4c3cc2CO1,no hit,no hit,no hit
N#CC1=C(N)N(c2ccc(F)cc2)C2=C(C(=O)OC2)C12C(=O)N(Cc1cccc(F)c1)c1ccccc12 (configuration not stated),no hit,no hit,no hit
Cn1cc(-c2ccc3nnc(C(F)(F)c4ccc5ncccc5c4)n3n2)cn1,no hit,no hit,no hit
Cn1c(=O)c2c(nc(NC3CCCCC3)n2Cc2ccccc2)n(C)c1=O,no hit,no hit,no hit

Calls as published in the ROBIN set (doi:10.1002/anie.202211358).